PubChem BioAssay AID493246, Drosophila RNAi Screening Center – 2011

Test: 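Genes fly cells need to grow and stay alive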 (primary screen)
System: Drosophila Kc and S2R+ cells
Knock-down reagent: long dsRNA against Drosophila genes
Measured: 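Cell number per well after knock-down, printed as raw plate values; calls were based on per-plate z-scores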
Scale: Kc cell number and S2R+ cell number: higher = more cells remaining
Hit rule: 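Counted as a hit if cell number falls by a z-score of at least 3 within its plate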
In all, the deposit lists about 21,000 reagents; below is a random part of those with a known target gene and a result. Over the whole deposit, 429 (2%) got an active call. 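Values are raw and not normalised between plates; calls rest on per-plate z-scores that were not deposited.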 Unmarked entries are inactive. A plus sign joins genes that one reagent is predicted to hit. Reagent sequences are not shown. The record does not give: the amount of reagent, the time to read-out.

The first 4 records, ahead of the listing:
target,amplicon,"Kc cell number, rep 1","Kc cell number, rep 2","S2R+ cell number, rep 1","S2R+ cell number, rep 2"
lqfR,DRSC14703,1.38e6,1.53e6,1.06e6,1.15e6
lqfR,DRSC14704,1.48e6,1.49e6,1.29e6,1.40e6
ATP8 (retired record),DRSC21277,1.57e6,1.65e6,1.14e6,1.30e6
CG14147,DRSC10149,1.41e6,1.30e6,1.29e6,1.44e6

The list itself, from the first entry:
target,amplicon,"Kc cell number, rep 1","Kc cell number, rep 2","S2R+ cell number, rep 1","S2R+ cell number, rep 2"
lqfR,DRSC14703,1.38e6,1.53e6,1.06e6,1.15e6
lqfR,DRSC14704,1.48e6,1.49e6,1.29e6,1.40e6
ATP8 (retired record),DRSC21277,1.57e6,1.65e6,1.14e6,1.30e6
CG14147,DRSC10149,1.41e6,1.30e6,1.29e6,1.44e6
CG13926,DRSC08395,1.27e6,1.31e6,1.06e6,1.19e6
IP3K1,DRSC02734,1.41e6,1.48e6,1.10e6,1.17e6
RpL32,DRSC16835,8.75e5 (active),8.54e5,5.82e5,7.46e5
CG34199,DRSC05867,5.24e5,,7.55e5,
Axn,DRSC14120,1.43e6,1.27e6,9.79e5,1.02e6
CG32202,DRSC09989,1.62e6,1.80e6,1.53e6,1.61e6
ND-ASHI,DRSC18291,1.45e6,1.40e6,9.64e5,1.09e6
Rab3GAP1,DRSC00291,1.63e6,1.64e6,1.14e6,1.29e6
Rab3GAP1,DRSC00703,1.64e6,1.69e6,1.17e6,1.34e6
Obp57e,DRSC05891,5.64e5,,7.67e5,
rdgA,DRSC17863,1.59e6,1.61e6,1.13e6,1.24e6
rdgA,DRSC18036,1.58e6,1.57e6,1.13e6,1.23e6
rdgA,DRSC18827,6.40e5,,9.62e5,
CG7556,DRSC20052,2.02e6,2.09e6,1.12e6,1.24e6
dyl,DRSC08466,1.30e6,1.40e6,1.08e6,1.01e6
dyl,DRSC08467,1.54e6,1.50e6,1.08e6,1.41e6
2mit,DRSC14194,1.48e6,1.52e6,1.08e6,1.25e6
2mit,DRSC15224,1.49e6,1.54e6,1.16e6,1.27e6
CG31855,DRSC02968,1.37e6,1.52e6,1.04e6,1.23e6
CG7906,DRSC10928,1.54e6,1.54e6,1.36e6,1.34e6
comr,DRSC04138,1.47e6,1.62e6,1.32e6,4.43e5
CG4734,DRSC06885,1.65e6,1.72e6,1.36e6,1.42e6
CG2150,DRSC15420,1.72e6,1.81e6,1.03e6,1.18e6
CG13862,DRSC14712,1.37e6,1.29e6,1.11e6,1.20e6
CG9004,DRSC08617,1.39e6,1.29e6,1.00e6,1.17e6
vis + achi,DRSC07277,1.27e6,1.41e6,1.12e6,1.19e6
Tim17b1,DRSC12179,1.59e6,1.74e6,1.20e6,1.32e6
Nadk2,DRSC07072,1.38e6,1.44e6,1.29e6,1.35e6
CG13506,DRSC04150,1.58e6,1.72e6,1.21e6,1.41e6
HP1c,DRSC16166,1.55e6,1.42e6,1.13e6,1.21e6
ham,DRSC02070,1.57e6,1.70e6,1.20e6,3.30e5
ham,DRSC02512,1.61e6,1.69e6,1.30e6,3.01e5
ham,DRSC02513,1.53e6,1.61e6,1.27e6,3.14e5
Or24a,DRSC00768,1.60e6,1.62e6,1.06e6,1.28e6
TpnC25D,DRSC02965,1.66e6,1.54e6,1.18e6,1.38e6
nan,DRSC10551,1.51e6,1.49e6,1.21e6,1.40e6
CG13527,DRSC04169,1.49e6,1.60e6,1.23e6,1.33e6
CSN7,DRSC06807,1.24e6,1.31e6,6.67e5,8.07e5
CSN7,DRSC06808,1.81e6,1.76e6,8.99e5,1.06e6
CR42745 (retired record),DRSC13756,1.36e6,1.65e6,1.16e6,9.51e5
Veneno,DRSC16537,1.47e6,1.58e6,1.23e6,1.29e6
CG8833,DRSC11050,1.50e6,1.65e6,1.32e6,1.33e6
CG11168,DRSC14292,1.55e6,1.68e6,1.24e6,1.37e6
Uros2,DRSC16505,1.48e6,1.47e6,1.03e6,1.17e6
RfC3,DRSC03411,1.52e6,1.56e6,1.19e6,1.38e6
CG13002,DRSC19521,1.56e6,1.62e6,1.20e6,1.27e6
Vhl,DRSC07716,1.51e6,1.54e6,1.18e6,1.28e6
eIF3i,DRSC03464,1.00e6,1.25e6,3.42e5,5.41e5
CG9636,DRSC16529,1.57e6,1.61e6,1.25e6,1.27e6
CG11710,DRSC20485,1.45e6,1.40e6,9.80e5,1.06e6
CG30428,DRSC04041,1.45e6,1.52e6,9.56e5,1.07e6
CG3280 (retired record),DRSC10356,1.39e6,1.43e6,1.19e6,1.30e6
Cpr66Cb,DRSC10769,1.58e6,1.47e6,9.93e5,1.15e6
beag,DRSC15296,1.60e6,1.62e6,1.20e6,1.24e6
CG7966,DRSC16356,1.55e6,1.65e6,1.36e6,1.44e6
CG34404,DRSC15335,1.31e6,1.44e6,1.31e6,1.45e6
CG34404,DRSC15978,1.55e6,1.64e6,1.31e6,1.42e6
CG6380,DRSC02950,1.54e6,1.61e6,1.19e6,1.30e6
CG4372,DRSC04466,1.50e6,1.62e6,1.28e6,3.48e5
CG11400,DRSC06070,1.52e6,1.55e6,1.18e6,1.27e6
Cyp6a19,DRSC07379,1.38e6,1.46e6,9.89e5,8.79e5
CG3184,DRSC18289,5.37e5,,8.67e5,
gcm,DRSC03536,1.62e6,1.66e6,1.16e6,1.34e6
CG17298,DRSC15221,1.47e6,1.41e6,1.07e6,1.20e6
TwdlC,DRSC14749,1.58e6,1.60e6,1.00e6,1.14e6
CG10462,DRSC02058,1.37e6,1.44e6,1.34e6,1.42e6
galectin,DRSC00305,1.83e6,1.87e6,1.15e6,1.24e6
CG17570,DRSC01770,5.74e5,,8.58e5,
CG17570,DRSC03754,1.45e6,1.57e6,1.19e6,2.85e5
CG31642,DRSC02919,1.28e6,1.70e6,5.07e5,3.21e5
GluProRS,DRSC14095,1.45e6,1.49e6,1.13e6,1.20e6
